Test results published in PubChem BioAssay AID1508600 (Functional Genomics Laboratory (NCATS/FGL), 2020).
The campaign covered roughly 53,000 sequences. About 3,700 (7%) were called active.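 How the source made its calls: active means gene knockdowns whose robust z-score for IL-1 alpha signal is at least 2 or at most -2, so actives lie on both sides; inactive means the rest.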 This is one part of the list.

test: Components of the Cytosolic LPS Sensing Pathway: Gene Identification via Genome-wide siRNA Screen; conditions: RAW264.7 macrophages, IL-1a HTRF, actives lie on both sides, screened at 100 nM (by protocol), cells primed 5 h with Pam3CSK4 first;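 further: robust z of the log signal after scaling to non-targeting control siRNA wells of the plate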
Method in brief: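 Mouse macrophage line RAW264.7 is transfected with siRNA (100 nM final), grown 48h, primed with TLR ligand Pam3CSK4 5 h and given intracellular LipidA 24 h. IL-1a in supernatant is read by HTRF and viability by luminescence.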

Sequence | z-score
GGUCAAAAGUGCUCUGAAGTT against Olfr447 | inactive: -0.142
GGAUGCUAUGAGCAACUUUTT against Mc4r | inactive: 0.47
GGAUGUCGAAGAAACAAAUTT against Ceacam12 | inactive: -1.39
GGGCUGAAUAAGGAACUGUTT against Nudt16l2 | inactive: 1.46
GGAAUAAUCCCAGAAUCAGTT against Stard6 | inactive: 0.0758
GGGUGCAUUACCCAGAUAUTT against Olfr1353 | inactive: 0.0848
GGGUGGAUUGAGAACAUCATT against Slc7a6os | inactive: -0.876
GGUGUUUUGCUUCCUUUUCTT against Olfr1184 | inactive: 0.121
CCGAAGUGGAAUAAAUUGUTT against Wdr63 | inactive: 0.637
GGACAUAGCAUGGUUCUAATT against Sult4a1 | inactive: 1.63
GGGAGUAGUAAUUGUACUUTT against Ugt2a2 | inactive: 0.401
GGAAAGCUUAUUUUCUCUCTT against Ppp1r1c | inactive: 0.437
GGAAGAAAUGGACCAGCUGTT against Hgh1 | inactive: -0.416
GCAUAAAGGAAUUGAUUCCTT against Zfp874a | inactive: 0.652
GUUUUUGCUAUGGCUCGUATT against H3c1 | inactive: 0.92
GUAUUCCAAUGUGGUGUUCTT against Txn1 | inactive: 0.712
GGUACUAAAGAAAUAUCCCTT against Sirt7 | inactive: 0.736
GGGUCAGUCCUUUUGAAUCTT against Rps15a | inactive: 0.104
GGAUUAUGGAGUUUGAUAGTT against Mrgprb4 | inactive: 0.938
GGAAUCAGUCGCAUCACUUTT against Gm4792 | inactive: -0.769
GCUUUGUCUACGUCUUUCATT against Gpnmb | inactive: 0.307
GGCAAGUUUCGCACCUCAGTT against Zfp219 | inactive: -0.755

An excerpt of these results, tab-delimited:
Sequence	z-score
GGAAUAAUCCCAGAAUCAGTT against Stard6	inactive: 0.0758
GGGUGCAUUACCCAGAUAUTT against Olfr1353	inactive: 0.0848
GGGUGGAUUGAGAACAUCATT against Slc7a6os	inactive: -0.876

(further entries)

Sequence | z-score
GGUUCAGAUGAAAUUUAGGTT against Ccnb1 | inactive: -1.41
GCCUCCCUCCAACAUUUAUTT against Sall4 | inactive: -1.53
GGUGGAAAGAGAGAGCUACTT against Slc12a7 | inactive: 0.458
GCUUCUGACCAUAUGUAGATT against Cd19 | inactive: 0.183
CCUUGUUAGAGCAUUACAATT against Rprd1a | inactive: 1.34
GGAAACUUUGCUGGUUAUATT against Dct | inactive: 1.2
GGUCACCUCAAUAAACUCUTT against Myl7 | inactive: 0.228
GCACCUAGUUAAUGCUGCCTT against C2cd2 | active: -2.15
GCUACAAUGCAACGUGGCUTT against Slc2a4 | inactive: 0.385
CCGGCUAUCUUUGAGAUGGTT against Kif3c | inactive: -0.602
GGAAUAAAGCUCAUCUACGTT against Slc43a2 | active: 2.09
GGCAACAUUGAACAUGCCUTT against Stambp | inactive: -1.76
GGAGAAAAAUAUUCUCUACTT against Olfr1094 | inactive: 1.19
CCCAUUCUCAGGGUACUAATT against Necab3 | inactive: -1.7
CCCAUUAGACCCAAGUUGGTT against Inpp5e | inactive: -0.836
GGAUGACCGUAUUGUGCUUTT against Actc1 | inactive: 0.292
GGAUGACAUCAUCAUUUGUTT against Samm50 | inactive: 1.23
GGAGGACUUUGUGUCUUACTT against Pald1 | inactive: -0.136
GGAAUCGAUGUUAACAUAATT against Anks1 | inactive: 0.3
GCAUAUUCUCACGUUUUCCTT against Mrgpra6 | inactive: -0.322
AUUCAUGUGGGCUUGUUAGTT against Olfr198 | inactive: -0.0194
GGAGACUUUGUUCAUGACATT against Tacr2 | inactive: 0.192

Rewritten as comma-separated lines: entries from further up
Sequence,z-score
GGACAUAGCAUGGUUCUAATT against Sult4a1,inactive: 1.63
GGGAGUAGUAAUUGUACUUTT against Ugt2a2,inactive: 0.401

More entries:

Sequence | z-score
CGGGUGAUGCCUAUGUCAUTT against Gsn | inactive: 0.837
GUUCCAUCUCCUUCCAGGATT against Cdc42ep2 | inactive: 0.556
GCUGUAACAAAGGAAAUAGTT against Nos2 | inactive: 0.779
GGCACAAACCUCUUUUGUUTT against Rtkn | inactive: -0.684
GGCUACUCCUAUGACCUGATT against Psmb5 | inactive: -0.615
CGGAAAUGUAUACAAAUCATT against Myt1l | inactive: 1.67
GGCAAUAACUGCUUUAUCUTT against Olfr509 | inactive: -0.68
GGGAAUGGAAACGGCCAUGTT against Nmt1 | active: 2.02
CCAAGUGCUAAACAAGACATT against Spata31 | inactive: 1.06
CCUAACUUACCUUCAUCUATT against Fbxo7 | inactive: -0.29
GGAUGUGGCCAUGGACUUUTT against Zfp286 | inactive: -1
GGCAAAAUGACACGGACACTT against Cd300lb | inactive: 0.616
CCAAGAUGCGAGUGGAGAGTT against Rgs9 | inactive: 0.325
GCAGAAGUCGAGCUAUGUUTT against Zfp365 | inactive: -1.21
GCCUGAACUUCUUAGCAUGTT against Uchl3 | inactive: 0.737
GGUGAAGAUCUGAUAAGAATT against Epb41 | inactive: -1.44
GCAGUGUCCCUAAAUGUUCTT against Adra1d | inactive: -0.734
GGGAUAACCAGUGAAUUUATT against Pcdhb15 | active: 2.23
GGCCAUCAAACAGACCUACTT against Lrp5 | inactive: -1.12
GGACUCACCCAUUCUUAUUTT against Mapre3 | inactive: 0.0804
GGACUUUGUAGACAACGUGTT against Ap4b1 | inactive: -1.25
CGAGUGUGAGCUACAGCGUTT against Agrn | active: 2.74

Sequence | z-score
GUGGUAAACAGAAUGGUGATT against Ccdc92b | inactive: -1
CCAAUAAAAGUUGAGAGCUTT against Krt18 | inactive: -0.272
GGAGAGUGAGAUCAUCUUUTT against Pde6a | inactive: -1.4
GGACUUGUUCCUGAAGACATT against Ubfd1 | inactive: 0.312
GGGUAUCAAUCUUAGGUUATT against Map6d1 | inactive: 1.05
GGCAGCUCACAUGAGCUUUTT against Hoxa4 | inactive: 0.879
CGAAGUCGUGGCAAUGAUUTT against Nfu1 | inactive: 1.39
GGGCAACCCAAAGAUGCCATT against Pla2g2d | inactive: -0.835
UGGAUAUUGGCUGAUGAGCTT against Bckdhb | inactive: -0.177
GCUCUGGUUGCCAGUUAUGTT against Ddx49 | inactive: 0.903
GCAAAUGCAUGACUUCUAUTT against Pcgf6 | inactive: 1.81
GGAAAACUUGAAGACAGAUTT against Scaper | inactive: 0.374
GCAACUUGGAAUGUUAUCUTT against Adh4 | inactive: -0.471
CGUGGUUCAGUUUCAUCAATT against Cox7a2 | inactive: 1.52
GGACAUGCAAAGAUACCGGTT against Ogfr | inactive: 0.184
CGUCUACCCGGAAUUUCAGTT against Sdha | inactive: -1.42
CCUGGUGGAUUGUUGGUGUTT against Guca1b | inactive: -0.254
GGUUCUGAUUUCAUUUGAUTT against Pkia | inactive: -0.774
GGAGUCCUGUAAAUGCAAUTT against Kat2b | inactive: 0.0824
GCAAGAAAUGGACAAUUACTT against Gkap1 | inactive: 0.478
CCAACAGUAGAUAAAAAGCTT against Sesn1 | inactive: -0.0778
GGCCCAAACACGUGUAAAATT against Kdm5b | inactive: 0.322

Already shown: entries from further up.
Sequence | z-score
GCAGUGUCCCUAAAUGUUCTT against Adra1d | inactive: -0.734
GGGAUAACCAGUGAAUUUATT against Pcdhb15 | active: 2.23
GGCCAUCAAACAGACCUACTT against Lrp5 | inactive: -1.12
GGACUCACCCAUUCUUAUUTT against Mapre3 | inactive: 0.0804

The list goes on.

Sequence | z-score
GGCUUUACAUUUUCAUUGUTT against Olfr993 | inactive: -0.219
GGAAAAUUGCAUGAGGGUUTT against Col6a6 | inactive: 1.35
GCUGAGAGUAUCCUUAUUCTT against Fhdc1 | inactive: 0.374
GCAUCACUGGAAAUCUUACTT against Olfr807 | active: -2.31
GGUUGUGCCAGAGGAGAUUTT against Scrib | inactive: 0.963
CCUACUGAUGUACACUGGATT against Fgf20 | inactive: 0.728
GCGAUCUAGAAAUUGACAATT against St13 | inactive: -0.59
CAAAGGAUGGCUGGUCAGATT against Sctr | inactive: 0.0193
GCAGGAUGCAGCGAUAGUUTT against Slc2a6 | inactive: -0.952
GGAAUUAAGUCAUCAGGAATT against Slc6a5 | inactive: -0.763
GCGGGAGCUUAGCUUUUAUTT against G6pc3 | active: 3.33
GGGCAACUACCUCUUUCGATT against Lrrc20 | inactive: 0.516
UAAUGGCUGCUGUCUCCUGTT against Olfr441 | inactive: 0.405
CCAAUCUUAGUCAUCCAUUTT against Foxo6 | active: -2.27
GGAAGCUAUGAACAAUACATT against Sulf2 | inactive: 0.00856
CGAUAAAAAUGAAUGGGACTT against Cyp17a1 | inactive: 0.959
GCAACAGCUUUAGAGUGACTT against B3gnt4 | inactive: 0.517
GGAUACAUUAAGGUGCAAGTT against Aldh1a7 | inactive: 0.819
GGUUCAGUUUUGGCUGGCUTT against Olfr558 | active: 2.04
